Test results taken from US20180371408A1, “CELL CULTURES AND METHODS OF USE” (priority 2017, published 2018).
Where two headings read alike, the source gives them in different places. For part of these data: For at least one compound, name, drawing or mass did not settle the structure. Some of these results come from one statement about several compounds together.

Experiments:
[1] = tested on: testicular co-culture: spermatogonial cells (C18-4), Sertoli cells (TM4), Leydig cells (TM3)
[2] = tested on: Spermatogonial cells (C18-4); type: cell-based, mouse; conditions: Spermatogonial Cell, highest concentration tested assigned as IC50 where viability did not decrease 50%
[3] = tested on: Leydig cells (TM3); type: cell-based, mouse; conditions: Leydig Cell, highest concentration tested assigned as IC50 where viability did not decrease 50%
[4] = tested on: Sertoli cells (TM4); type: cell-based, mouse; conditions: Sertoli Cell, highest concentration tested assigned as IC50 where viability did not decrease 50%
[5] = tested on: testicular cell co-culture (C18-4, TM4, TM3); test: NR dye uptake assay, co-cultures treated with BPA and analogs (Example 2); conditions: 48 and 72 h
Experimental: The testicular cell co-culture model was established as reported in Example 1 Briefly, mouse spermatogonial cell line C18-4 was established via germ cells isolated from the testes of 6 day old Balb/c mice. […] Mouse Leydig (TM3) and Sertoli (TM4) cell lines were purchased from ATCC, and these cells were isolated from prepubertal mouse gonads. […]
Cell viability was determined through the Neutral Red uptake assay, which is based on the ability of viable cells to incorporate NR dye into their lysosomes, while the dye is not retained if the cell dies (Repetto et al., 2008). […] The plate was then gently shaken, and absorbance values were measured at 540 nm with a Synergy HT microplate reader (BioTek, VT). Cell viability was presented as a percentage of the mean of vehicle controls after subtracting background readings.
The data obtained from the HCS Studio·8 2.0 TargetActivation BioApplication, CellProfiler and CellProfiler Analyst were exported and further analyzed using the JMP statistical analysis package (SAS Institute, NC). […] The median lethal concentrations (LC50) were calculated using a nonlinear regression curve fit on GraphPad Prism 5 (San Diego, Calif.). […] Statistical significance was determined using one-way ANOVA followed by Tukey-Kramer all pairs comparison. […]

[6] = read-out: IC50 values (mostly), co-culture or single cell culture models, 24 and 48 h
[7] = Co-culture, 24 h, highest concentration tested assigned as IC50 where viability did not decrease 50%
[8] = Co-culture, 48 h, highest concentration tested assigned as IC50 where viability did not decrease 50%

## Oc1cc(Cl)ccc1Oc1ccc(Cl)cc1Cl [TCS]
[1]; [6]
  IC50: ≤ 100 µM

## O=C(c1ccc2c(c1)C(=O)OC2=O)c1ccc2c(c1)C(=O)OC2=O [BEN, Benzophenone-3,3′,4,4′-tetracarboxylic dianhydride]
[2]; 24 h
  IC50: ≥ 400 µM
[2]; 48 h
  IC50: ≥ 400 µM
[3]; 24 h
  IC50: ≥ 400 µM
[3]; 48 h
  IC50: ≥ 400 µM
[4]; 24 h
  IC50: ≥ 400 µM
[4]; 48 h
  IC50: ≥ 400 µM
[1]; [7]
  IC50: ≥ 400 µM
[1]; [8]
  IC50: ≥ 400 µM

## [Cl][Cd][Cl] [Cd, Cadmium chloride]
[1]; [6]
  IC50: ≤ 100 µM

## COC(=O)c1ccccc1C(=O)OC [DMP]
[2]; 24 h
  IC50: > 400 µM
[2]; 48 h
  IC50: > 400 µM
[3]; 24 h
  IC50: > 400 µM
[3]; 48 h
  IC50: > 400 µM
[4]; 24 h
  IC50: > 400 µM
[4]; 48 h
  IC50: > 400 µM
[1]; [7]
  IC50: > 400 µM
[1]; [8]
  IC50: > 400 µM

## Sodium arsenite [As]
[1]; read-out: IC50 values (mostly)
  IC50: ≤ 100 µM

## CC(C)(c1ccc(O)cc1)c1ccc(O)cc1 [BPA, 4,4′-(propane-2,2-diyl) diphenol]
[5]
  doses significantly decreasing cell viability: ≥ 100 µM

## O=S(=O)(c1ccc(O)cc1)c1ccc(O)cc1 [BPS, 4,4′-Sulfonyldiphenol]
[5]
  doses significantly decreasing cell viability: ≥ 100 µM

## CCCCC(CC)COC(=O)c1ccc(C(=O)OCC(CC)CCCC)cc1 (stereo not drawn) [DOTP]
[2]; 24 h
  IC50: > 400 µM
[2]; 48 h
  IC50: > 400 µM
[3]; 24 h
  IC50: > 400 µM
[3]; 48 h
  IC50: > 400 µM
[4]; 24 h
  IC50: > 400 µM
[4]; 48 h
  IC50: > 400 µM
[1]; [7]
  IC50: > 400 µM
[1]; [8]
  IC50: > 400 µM

## CCCCCOC(=O)c1ccccc1C(=O)OCCCCC [DPP]
[2]; 24 h
  IC50: ≥ 400 µM
[3]; 24 h
  IC50: ≥ 400 µM
[4]; 24 h
  IC50: ≥ 400 µM
[4]; 48 h
  IC50: ≥ 400 µM
